Laboratory results published in patent US20240254227A1.
Where a chain is given by its changes, count along the chain named. Results are given in words; binding and its absence hold for the method and conditions named. Some binding calls cover weakened binding; strength is not graded here. Blank lines part the entries; values can stand above or below the binder they belong to.

Amino acid sequences for entries named in this document (tags omitted). A change or cut given only in a name is not applied to a line headed by its entry.
UniProt A8K4G0: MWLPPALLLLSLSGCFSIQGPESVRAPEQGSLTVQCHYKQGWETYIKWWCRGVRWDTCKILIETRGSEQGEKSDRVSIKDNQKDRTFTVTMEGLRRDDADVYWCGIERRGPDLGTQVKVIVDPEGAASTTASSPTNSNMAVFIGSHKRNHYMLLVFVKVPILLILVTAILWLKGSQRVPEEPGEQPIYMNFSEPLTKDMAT

Legend:
[1] = target: murine CD300LB stably expressed on Jurkat cells (mouse) (UniProt Q3U497); assay: flow cytometry, stable Jurkat cells
[2] = target: recombinant human CD300LB overexpressed on Jurkat cells (human) (UniProt A8K4G0); assay: flow cytometry, stable Jurkat cells
[3] = target: recombinant human CD300LB overexpressed on Jurkat cells (human) (UniProt A8K4G0); assay: flow cytometry, geometric mean (APC-A), Jurkat cells overexpressing huCD300LB
[4] = target: murine CD300LB-Fc (mouse); assay: SPR (Carterra LSA), antibody immobilised
[5] = target: T1, murine CD300LB on wild type mouse bone marrow macrophages (mouse) (UniProt Q3U497); assay: flow cytometry, mouse bone marrow macrophages
T1 sequence: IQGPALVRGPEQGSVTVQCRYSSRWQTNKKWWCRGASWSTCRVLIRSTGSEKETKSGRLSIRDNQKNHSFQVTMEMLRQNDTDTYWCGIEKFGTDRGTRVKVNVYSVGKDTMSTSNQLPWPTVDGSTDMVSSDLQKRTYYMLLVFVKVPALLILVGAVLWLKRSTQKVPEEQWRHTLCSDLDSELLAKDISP

[6] = target: T2, recombinant murine CD300LB overexpressed on BaF/3 cells (mouse) (UniProt Q3U497); assay: flow cytometry, BaF/3 cells overexpressing muCD300LB
T2 sequence: T1 sequence

B3: anti-CD300LB antibody CD-08 (antibody, V domains shown)
VH: EVQLLESGGGLVQPGGSLRLSCAASGFTFSNAWMSWVRQAPGKGLEWVSVISGSGGRTYYADSVKGRFTISRDNSKNTLYLQMNSLRAEDTAVYYCARDGTTVAPKGMDVWGQGTTVTVSS
VL: DIQMTQSPSSLSASVGDRVTITCQASQDINNYVNWYQQKPGKAPKLLIYAASNLQSGVPSRFSGSGSGTDFTLTISSLQPEDFATYYCQQSYSPPYTFGQGTKLEIK
binding [3]: binds

B4: anti-CD300LB antibody CD-10 (antibody, V domains shown)
VH: QVQLQQSGPELVRPGVSVKISCKGSGYTFTDYAMHWVKQSHVRSREWIGVIGTYNGHTNYNQKFKGKATMTVDKSSSTAYLELARLTSEDSAIYYCARSGSYYYSMDYWGQGTSVTVSS
VL: QIVLTQSPAIMSASPGEKVTMTCSASSSVNYMHWYQQKSGTSPKRWIYDTSKLSSGVPARFSGSGSGTSYSLTISTMEAEDAATYYCQQWSSNPPMTFGGGTKLEIK
binding [1]: binds

B5: anti-CD300LB antibody CD-13 (antibody, V domains shown)
VH: QIQLVQSGPELKKPGETVKISCKASGYTFTDYSMHWVKQAPGKGFKWMAWINTETGAPTHADDFRGRFAFSLETSASTAFLQISNLKTEDTATYFCVTFGKSYGMNYWGQGTSVTVSS
VL: DIVLTQSPASLSVSLGQRATISCRASKSVGSSGSSYLHWYQQKPGQPPKLLIYLASNLESGVPARFSGSGSGTEFTLNIHPVEEEDAATYYCQHNAEVPPTFGGGTKLEIK
binding [1]: binds
binding [2]: binds

B6: anti-CD300LB antibody CD-16 (antibody, V domains shown)
VH: QIQLVQSGPELKKPGETVKISCKASGYTFTDYSMHWVKQAPGKGLKWMAWINTETGEPTYADDFRGRFAFSLETSGRTAYLEINNLRNEDTATYFCVTYGSSYGMAYWGQGTSVTVSS
VL: B5 VL with S12A, G30S, S31R, S34Y, N57K, E74D, E84A, A96R, V98I
binding [1]: binds

B8: anti-CD300LB antibody CD-15 (antibody, V domains shown)
VH: QIQLVQSGPELKKPGETVKISCQVSGYTFTDYSMHWLKQAPGKGLKWMAWINTETGESTYTDEFKGRFVFSLETSVRTAYLKINNLKNEDTATYFCGTYGSSYGMAYWGQGTSVTVSS
VL: B5 VL with S12P, G30S, S31T, N57K, S67R, E74D, A96R
binding [1]: binds

B9: anti-CD300LB antibody CD-05 (antibody, V domains shown)
VH: QVQLVQSGAEVKKPGASVKVSCKASGYTFSRYYINWVRQAPGQGLEWMGWINPNSGGTNYAQKFQGRVTMTRDTSTSTVYMELSSLRSEDTAVYYCTTDQLRFGKTGPYYGMDVWGQGTTVTVSS
VL: DIQMTQSPSSLSASVGDRVTITCRASQNIGTYLNWYQQKPGKAPKLLIYAASSLQSGVPSRFSGSGSGTDFTLTISSLQPEDFATYYCQQSYSDTLTFGGGTKVEIK
binding [3]: binds

B11: anti-CD300LB antibody CD-07 (antibody, V domains shown)
VH: QVQLVQSGAEVKKPGASVKVSCKASGYTFTNYRMHWVRQAPGQGLEWMGWINPNSGGTIYAQKFQGRVTMTRDTSTSTVYMELSSLRSEDTAVYYCARDLDYWGQGTLVTVSS
VL: B3 VL with N30S, V33L, A50G, N53S, P94T, Y96W, Q100P, L104V
binding [3]: binds

B14: anti-CD300LB antibody CD-04 (antibody, V domains shown)
VH: QVQLQQSGAELVRPGASVTLSCRASGYTFTDFEMHWVKQTPLHGLEWIGAIAPETGGTAYNQKFKGKAILTADKSSSTAYVELRSLTSEDSAVYFCTRLGGMDYWGQGTSVTVSS
VL: DVVMTQTPLSLPVSLGDQASISCRSSQTLVHNNGNTYLYWYLQKPGQSPKLLIYQVSNRFFGVPDRFSGSGSGTDFTLKISRVEAEDLGLYFCSQSTHVPWTFGGGTKLEIK
binding [2]: binds
binding [3]: binds

B15: anti-CD300LB antibody CD-18 (antibody, V domains shown)
VH: DVQLQESGPDLVKPSQSLSLTCTVTGYSITSGYSWHWIRQFPDNKLEWMGYILSRGDTNFNPSLKSRISITRSTSNNQFFLHFNSVTTEDTATYYCARDFFDYWGQGTTLTVSS
VL: DVLMTQTPLSLPVSLGDQASISCRSSQSIVHSNGNTYLEWYLQKPGQSPKLLIYKVSDRFSGVPDRFSGSGSGTDFTLKISRVEAEDLGVYFCFQGSHVPYTFGGGTKLEIK
binding [1]: binds
binding [2]: binds

B16: anti-CD300LB antibody CD-17 (antibody, V domains shown)
VH: QIQLVQSGPELKKPGETVKISCKASGYTLTDYSMHWVKQAPGKGLKWMGWINTETGEPRYGDDFKGRFAFSLETSASSAYLQINNLKNDDTATYFCATYGRSYGMDFWGQGTSVTVSS
VL: DIVLTQSPASLAVSLGQRATISCRASKSVSPSGHSYMHWYQQKPGQPPKLLIYLASNLKSGVPARFSGSGSGTDFTLNIHPVEEGDAATYYCQHNRELPPTFGGGSKLEIK
binding [1]: binds

Other lines, results leading:

binding [1]: binds
binding [2]: binds
B1: anti-CD300LB antibody CD-14 (antibody, V domains shown)
VH: QIQLVQSGPELKKPGETVKISCKASGYTFTDYSLHWVKQTPEKNLKWMAWINTETGAPTYADDFKGRFAFSLETSSNTAYLLINNLKNEDTATYFCALTMVNYWGQGTTLTVSS
VL: DIVMTQSQKFMSTSVGDRVSVTCKASQNVGIRVAWHQQKPGQSPKTLIYSTSYRYSGVPDRFTGSGSGTEFILTISNVQSEDLAEYFCQQYNSYPYTFGGGTKLEIK

binding [1]: binds
B2: anti-CD300LB antibody CD-11 (antibody, V domains shown)
VH: QIQLVQSGPEVKKPGETVKISCKASGYTLTDYSMHWVMQTPGTGLKWMAWMNTETGEPTYADDFKGRFAFSLETSAGTAYLQIDNLKNEDTATYFCATYGKSYGMKYWGQGTSVTVSS
VL: DIVLTQSPPSLAVSLGQRATISCRATKSVSPYLHWYQQTPGQPPKLLIYLASNLDSGVPARFSGSGSGTDFTLNIHPVEEEDAATYYCQHNKELPPTFGGGTRLEIK

binding [1]: binds
binding [4]: binds
binding [5]: binds
binding [6]: binds
B7: anti-CD300LB antibody CD-12 (antibody, V domains shown)
VH: QIQLVQSGPELKKPGETVKISCKASGYTFTDYSMHWVRQAPGKGLKWMAWINTETGEATHADDFKGRFDFSLDTSASTAYLQIKNLKNEDTGIYFCVCYGSSYGMDYWGQGTSVTVSS
VL: B16 VL with A12P, S30R, P31T, H34A, A64T, G85E, L98V, S106T

binding [2]: binds
binding [3]: binds
B10: anti-CD300LB antibody CD-06 (antibody, V domains shown)
VH: QVQLVQSGAEVKKPGASVKVSCKASGYTFTTYAVHWVRQAPGQGLEWMGIVNPNSGGTNYAQKFQGRVTMTRDTSTSTVYMELSSLRSEDTAVYYCARDIVPMNNFYNYYYGMDVWGQGTTVTVSS
VL: B3 VL with Q24R, D28S, N30S, N31S, V33L, A51T, N53T, S93R, P94I, L104V

binding [3]: binds
B12: anti-CD300LB antibody CD-09 (antibody, V domains shown)
VH: B10 VH with V51I
VL: B3 VL with Q24R, D28S, N30S, N31S, V33L, A51T, N53T, S93R, P94I, L104V

binding [1]: binds
binding [2]: binds
binding [3]: binds
B13: anti-CD300LB antibody CD-01 (antibody, V domains shown)
VH: RVQLQQSGAELVRPGASVTLSCKASGFTFTDFEMHWVKKTPVHGLEWIGAIDPESGNTAYNQKFRGKATLTADKSSSTAYMELRYLTSEDSAVYYCTPLISGADYWGQGTTLTVSS
VL: B14 VL with T7S, T28S, N32S, N33D, Q55K, F61S, L78F, E84G, L90V, K112I
